The values below come from the supplement of paper PMC12067093, “Discovery and optimisation of a covalent ligand for TRIM25 and its application to targeted protein ubiquitination” (Chemical Science, 2025).

Sequences of proteins named here, by UniProt entry; tags and fusion partners are left off. A change or cut given only in a name is not applied to a line headed by its entry.
UniProt Q12906, whole entry, looked up: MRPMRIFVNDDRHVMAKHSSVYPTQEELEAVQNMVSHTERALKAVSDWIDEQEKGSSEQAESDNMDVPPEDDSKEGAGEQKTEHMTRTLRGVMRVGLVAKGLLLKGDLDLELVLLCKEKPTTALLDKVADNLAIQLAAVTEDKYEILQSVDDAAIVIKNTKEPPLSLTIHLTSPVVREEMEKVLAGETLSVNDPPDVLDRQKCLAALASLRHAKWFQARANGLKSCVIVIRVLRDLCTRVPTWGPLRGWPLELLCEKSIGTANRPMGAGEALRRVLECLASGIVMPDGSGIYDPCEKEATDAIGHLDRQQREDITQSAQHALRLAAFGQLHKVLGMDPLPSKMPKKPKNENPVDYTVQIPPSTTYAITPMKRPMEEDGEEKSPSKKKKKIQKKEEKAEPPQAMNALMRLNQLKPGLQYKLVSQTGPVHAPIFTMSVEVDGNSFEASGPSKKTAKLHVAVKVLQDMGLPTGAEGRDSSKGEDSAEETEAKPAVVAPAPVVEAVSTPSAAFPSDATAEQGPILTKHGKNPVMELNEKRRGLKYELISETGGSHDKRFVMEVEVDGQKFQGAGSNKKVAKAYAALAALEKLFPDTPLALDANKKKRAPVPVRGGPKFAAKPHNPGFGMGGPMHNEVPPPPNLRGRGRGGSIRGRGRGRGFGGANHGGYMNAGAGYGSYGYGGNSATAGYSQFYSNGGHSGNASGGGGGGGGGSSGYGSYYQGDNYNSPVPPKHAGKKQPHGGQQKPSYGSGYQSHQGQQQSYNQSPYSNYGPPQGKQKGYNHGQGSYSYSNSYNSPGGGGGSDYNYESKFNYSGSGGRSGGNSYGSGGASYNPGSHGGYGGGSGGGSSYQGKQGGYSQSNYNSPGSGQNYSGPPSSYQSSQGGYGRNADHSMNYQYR
UniProt Q13907: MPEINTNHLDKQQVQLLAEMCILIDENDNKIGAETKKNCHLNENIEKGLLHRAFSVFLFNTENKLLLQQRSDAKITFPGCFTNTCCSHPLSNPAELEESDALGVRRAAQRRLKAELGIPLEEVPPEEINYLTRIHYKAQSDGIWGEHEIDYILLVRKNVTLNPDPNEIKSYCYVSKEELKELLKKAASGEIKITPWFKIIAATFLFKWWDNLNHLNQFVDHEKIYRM
UniProt Q9Y6M1: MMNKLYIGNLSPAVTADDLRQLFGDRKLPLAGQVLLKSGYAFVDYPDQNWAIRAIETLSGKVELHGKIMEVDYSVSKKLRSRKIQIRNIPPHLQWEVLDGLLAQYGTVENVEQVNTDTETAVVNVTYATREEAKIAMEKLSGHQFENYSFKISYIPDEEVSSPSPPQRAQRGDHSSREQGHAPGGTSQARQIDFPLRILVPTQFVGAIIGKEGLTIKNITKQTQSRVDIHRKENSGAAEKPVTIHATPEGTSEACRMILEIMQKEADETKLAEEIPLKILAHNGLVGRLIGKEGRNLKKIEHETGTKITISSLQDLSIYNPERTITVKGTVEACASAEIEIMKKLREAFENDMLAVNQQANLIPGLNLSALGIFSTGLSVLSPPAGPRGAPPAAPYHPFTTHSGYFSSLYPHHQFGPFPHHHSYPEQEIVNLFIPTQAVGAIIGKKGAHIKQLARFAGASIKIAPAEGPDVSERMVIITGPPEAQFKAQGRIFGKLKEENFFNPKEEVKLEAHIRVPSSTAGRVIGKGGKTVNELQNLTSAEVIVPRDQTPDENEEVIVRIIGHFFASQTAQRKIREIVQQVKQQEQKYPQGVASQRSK

The other results are listed elsewhere or left out.

Compound in this assay: CC1Cc2ccccc2N1C(=O)C1CCCN(C1)C(=O)CCl (mixture of isomers) [TRIM25 ligand 11 (diastereomer mixture)]
Briefly: probe-labelled cysteine peptide fold change vs DMSO (competition) (log2 fold change); higher = less target engagement (more negative = stronger competition). As to conditions: THP-1, incubation time: 4 h.
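Further: competitive chemoproteomic profiling in live THP-1 cells with an iodoacetamide desthiobiotin (IA-DTB) probe, comparing probe-labelled peptide intensities in compound-treated cells against DMSO-treated controls.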

On to “ILF3_Q12906_116_GDLDLELVLLCK (UniProt Q12906)”, for which the “probe-labelled cysteine peptide fold change” value by setting is: (10 µM) -0.0308; (50 µM) 0.0695.

“IDI1_Q13907_39_NCHLNENIEK (UniProt Q13907)”: the “probe-labelled cysteine peptide fold change” value was 0.0227 (10 µM) and -0.0977 (50 µM).

Turning to “IGF2BP2_Q9Y6M1_255_PVTIHATPEGTSEACR (UniProt Q9Y6M1)”, the “probe-labelled cysteine peptide fold change” value (10 µM) is 0.153 and the “probe-labelled cysteine peptide fold change” value (50 µM) was 0.107.
